These results are taken from publication PMC4255730.

No constants are given. Whether binding was seen depends on the method and setting. In cells and extracts the contact can be indirect. A result given as binding can be weak or reduced; the word gives no strength. Where a sequence is shown, tags or fusion partners need not be part of it.

The target in the assay is T1, SUBEX-C57Y-GFP (misfolded variant of the STRUBBELIG extracellular domain, C57Y, fused to GFP) (A. thaliana) (UniProt Q8RWZ1).
T1 sequence (chain, N-glycans at N70, N119, N243 (mainly oligomannosidic)): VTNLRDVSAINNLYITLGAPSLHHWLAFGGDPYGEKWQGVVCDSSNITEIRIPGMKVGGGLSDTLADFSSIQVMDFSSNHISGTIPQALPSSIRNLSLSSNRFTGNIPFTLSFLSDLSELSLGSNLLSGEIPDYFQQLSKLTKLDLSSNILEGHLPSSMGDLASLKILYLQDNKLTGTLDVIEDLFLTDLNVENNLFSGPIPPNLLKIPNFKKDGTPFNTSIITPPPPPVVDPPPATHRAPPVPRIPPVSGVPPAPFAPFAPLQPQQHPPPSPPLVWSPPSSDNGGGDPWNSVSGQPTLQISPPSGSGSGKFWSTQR
Description: co-IP; GFP-tagged SUBEX variants captured on GFP trap beads (1.5 h, 4°C) from RIPA extracts of co-infiltrated N. benthamiana leaves, with or without 20 μM kifunensine; co-purified proteins detected by immunoblot with anti-HA or anti-mRFP. (In general: A western blot detects proteins with antibodies after separation by electrophoresis.)

SEL1L-HA (A. thaliana): the binding result was “binds”.
